The exact form of at least one protein or probe is not confirmed. The comparison behind a weaker result is the experiment's own reference, which may not be listed here. Tags and fusion partners may be left off the protein sequences shown.
Molecular target: T1, Hrp1 (CF IB) (Saccharomyces cerevisiae) (UniProt Q99383)
T1 sequence (looked up, limits assumed): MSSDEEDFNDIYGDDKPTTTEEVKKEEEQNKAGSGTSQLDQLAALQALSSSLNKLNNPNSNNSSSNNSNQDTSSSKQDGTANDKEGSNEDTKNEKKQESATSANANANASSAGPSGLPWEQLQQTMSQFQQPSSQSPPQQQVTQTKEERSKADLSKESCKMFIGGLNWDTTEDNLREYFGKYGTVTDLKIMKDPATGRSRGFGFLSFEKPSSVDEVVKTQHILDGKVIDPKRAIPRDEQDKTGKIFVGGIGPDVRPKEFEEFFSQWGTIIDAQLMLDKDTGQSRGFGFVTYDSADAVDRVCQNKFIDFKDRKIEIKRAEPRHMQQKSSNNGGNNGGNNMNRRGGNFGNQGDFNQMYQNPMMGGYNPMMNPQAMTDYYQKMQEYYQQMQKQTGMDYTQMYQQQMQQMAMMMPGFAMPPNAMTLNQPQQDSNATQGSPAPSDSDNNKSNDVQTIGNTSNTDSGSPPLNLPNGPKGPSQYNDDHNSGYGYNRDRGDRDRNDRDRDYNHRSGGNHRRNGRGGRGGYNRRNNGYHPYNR
Assay: EMSA
Details: EMSA: 50 nM RNA, 0.25-4.0 uM protein, protein diluted in 10 mM HEPES pH 7.9, 150 mM NaCl, 0.5 mM Mg(OAc)2, plus 1x loading dye (orange G, glycerol, EDTA); 30 min on ice; recombinant protein; protein details: 6H (6H-Hrp1); label: 5'-FAM

Sequence: AAAAAAAAAAAAAAA [A15]
- binding result: binds more weakly

Reference: PMC6436931, “Activation of the Endonuclease that Defines mRNA 3′ Ends Requires Incorporation into an 8-Subunit Core Cleavage and Polyadenylation Factor Complex” (Molecular Cell, 2019)
